Reference: PubChem BioAssay AID652259 (Drosophila RNAi Screening Center, 2013)
Assay: 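Identify new Wingless signalling regulators in fly cells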 (primary screen). Cell system: Drosophila clone 8 imaginal disc epithelial cells. Reagent: long dsRNA against Drosophila genes. Treatment: pathway stimulated by co-transfected Wingless expression plasmid. Measured: 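Dual luciferase reads per well after Wingless plasmid stimulation: reporter firefly light and Renilla control light; activity is firefly divided by Renilla, a ratio not deposited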. Direction: firefly reporter light: higher = more Wg reporter light, before normalisation; Renilla control light: higher = more transfected or surviving cells. Call rule: 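Strong candidates differ from their plate mean by at least two out of four per-plate statistical tests; weak candidates meet just one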. Calls: active = candidate regulator (raises or lowers reporter); inactive = not a candidate.
In all, the deposit lists about 22,000 reagents; shown is an unselected part of those that have a named target and a result. Over the whole deposit, 233 (1.1%) got an active call. 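Light values are raw, unnormalised plate reads; the ratio scores behind the reporter calls were not deposited.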 A plus sign joins genes that one reagent is predicted to hit. Not stated in the record: the amount of reagent, the time to read-out, the dose of the treatment.

CG43345 + CG43346 [DRSC03164] | firefly reporter light, replicate 1: 16169; Renilla control light, replicate 1: 3896; call: inactive
CG13376 (GeneID 3346142) [DRSC17901] | firefly reporter light, replicate 1: 31809; Renilla control light, replicate 1: 18164; call: inactive
Lamtor5 (GeneID 31137) [DRSC18491] | firefly reporter light, replicate 1: 26066; Renilla control light, replicate 1: 16181; call: inactive
ppk6 (GeneID 37286) [DRSC06062] | firefly reporter light, replicate 1: 4426; Renilla control light, replicate 1: 1883; call: inactive
CG18766 (GeneID 59150) [DRSC15936] | firefly reporter light, replicate 1: 2147; firefly reporter light, replicate 2: 4246; Renilla control light, replicate 1: 964; Renilla control light, replicate 2: 1717; call: inactive
cutlet (GeneID 44637) [DRSC00284] | firefly reporter light, replicate 1: 4482; firefly reporter light, replicate 2: 12528; Renilla control light, replicate 1: 1483; Renilla control light, replicate 2: 4396; call: inactive

The list goes on, starting with the last 2 of the part before.
CG18766 (GeneID 59150) [DRSC15936] | firefly reporter light, replicate 1: 2147; firefly reporter light, replicate 2: 4246; Renilla control light, replicate 1: 964; Renilla control light, replicate 2: 1717; call: inactive
cutlet (GeneID 44637) [DRSC00284] | firefly reporter light, replicate 1: 4482; firefly reporter light, replicate 2: 12528; Renilla control light, replicate 1: 1483; Renilla control light, replicate 2: 4396; call: inactive
VhaAC39-2 (GeneID 42739) [DRSC15609] | firefly reporter light, replicate 1: 16587; Renilla control light, replicate 1: 17394; call: inactive
CG30279 (retired record) (GeneID 246524) [DRSC22417] | firefly reporter light, replicate 1: 9.14e5; firefly reporter light, replicate 2: 8.56e5; Renilla control light, replicate 1: 4.22e5; Renilla control light, replicate 2: 1.48e5; call: inactive
Spn27A (GeneID 45815) [DRSC03608] | firefly reporter light, replicate 1: 1940; firefly reporter light, replicate 2: 7410; Renilla control light, replicate 1: 852; Renilla control light, replicate 2: 2518; call: inactive
CG33770 (GeneID 3772256) [DRSC11717] | firefly reporter light, replicate 1: 33824; Renilla control light, replicate 1: 6256; call: inactive
CG13639 (GeneID 12798257) [DRSC14638] | firefly reporter light, replicate 1: 26667; Renilla control light, replicate 1: 22890; call: inactive
CG15535 (GeneID 43608) [DRSC15071] | firefly reporter light, replicate 1: 9162; Renilla control light, replicate 1: 3685; call: inactive
